Experimental data as given in publication doi:10.64898/2025.12.15.694443.
No constants are given. Whether binding was seen depends on the method and setting. Where a sequence is shown, tags or fusion partners need not be part of it.

Molecular target: ARAF kinase domain (his6-ARAF^282-579) (UniProt P10398)
Assay: SEC

B1: ARAF kinase domain (his6-ARAF^282-579) (domain or fragment, UniProt P10398 282-579)
chain: KSLADDKKKVKNLGYRDSGYYWEVPPSEVQLLKRIGTGSFGTVFRGRWHGDVAVKVLKVSQPTAEQAQAFKNEMQVLRKTRHVNILLFMGFMTRPGFAIITQWCEGSSLYHHLHVADTRFDMVQLIDVARQTAQGMDYLHAKNIIHRDLKSNNIFLHEGLTVKIGDFGLATVKTRWSGAQPLEQPSGSVLWMAAEVIRMQDPNPYSFQSDVYAYGVVLYELMTGSLPYSHIGCRDQIIFMVGRGYLSPDLSKISSNCPKAMRRLLSDCLKFQREERPLFPQILATIELLQRSLPKIER
Q: How did the binding turn out when B1 was run?
A: The binding was “no binding”.
